In article PMC10784507:
No constants are given. Whether binding was seen depends on the method and setting. Some entries that bind do so weakly or less than the wild type. Tags and fused reporters may be left off the sequences shown.

By UniProt entry, the sequences of proteins in these tests, tags left out. Where a name states a change or a piece, a line headed by the entry shows the natural chain unless it says otherwise. Residues count along the entry.
UniProt Q5VUM1: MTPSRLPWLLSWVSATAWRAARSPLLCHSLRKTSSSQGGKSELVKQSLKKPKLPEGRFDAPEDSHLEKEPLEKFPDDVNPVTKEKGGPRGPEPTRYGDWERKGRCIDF
FLAG-SDHAF4 (mature, residues 20-108): residues 20-108 of Q5VUM1
His6-SDHAF4^30-108: residues 30-108 of Q5VUM1
UniProt P31040, residues 43-664: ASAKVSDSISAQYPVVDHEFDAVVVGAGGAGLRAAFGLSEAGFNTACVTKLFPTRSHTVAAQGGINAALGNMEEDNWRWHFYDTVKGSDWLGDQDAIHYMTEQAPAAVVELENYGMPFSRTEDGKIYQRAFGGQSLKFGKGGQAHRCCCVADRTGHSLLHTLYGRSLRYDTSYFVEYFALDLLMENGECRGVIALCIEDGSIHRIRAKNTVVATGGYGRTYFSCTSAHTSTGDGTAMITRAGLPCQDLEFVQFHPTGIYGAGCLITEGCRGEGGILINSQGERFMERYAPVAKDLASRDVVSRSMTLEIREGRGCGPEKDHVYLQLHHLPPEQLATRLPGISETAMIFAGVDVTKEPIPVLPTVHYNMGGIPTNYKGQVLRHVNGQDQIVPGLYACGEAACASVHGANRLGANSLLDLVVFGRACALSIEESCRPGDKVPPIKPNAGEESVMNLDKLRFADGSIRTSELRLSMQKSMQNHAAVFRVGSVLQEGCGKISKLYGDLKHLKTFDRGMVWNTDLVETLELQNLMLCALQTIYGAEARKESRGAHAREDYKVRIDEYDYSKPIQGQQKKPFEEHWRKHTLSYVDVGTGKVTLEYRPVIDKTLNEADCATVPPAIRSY

Columns and labels:
[1] = biological target: His6-SDHAF4^30-108 (human) (UniProt Q5VUM1); test: crystal structure; SDHA-AF2-AF4: holo-SDHA-SDHAF2 with His6-SDHAF4, 5 h at 4 °C, SEC; crystals in 0.2 M ammonium citrate tribasic pH 8.0, 20% PEG 3,350, 1 mM DTT, 25 °C; both purified
[2] = biological target: holo-SDHA with covalently attached FAD (human) (UniProt P31040); test: as above
[3] = biological target: FLAG-SDHAF4 (mature, residues 20-108) (human) (UniProt Q5VUM1); test: pull-down; ANTI-FLAG M2 affinity gel; SDHAF2 (8 µM) with FLAG-SDHAF4 (4 µM), or SDHAF2 alone; 40 mM HEPES pH 7.5, 0.5 mM DTT, 30 min 25 °C; SDS-PAGE, Coomassie, densitometry; both purified

Row | Binder | binding [1] | binding [2] | binding [3]
1 | untagged mature 37SDHAF2 (residues 37-166), co-expressed with His6-SDHA (protein, UniProt Q9NX18 37-166) GDSPTDSQKDMIEIPLPPWQERTDESIETKRARLLYESRKRGMLENCILLSLFAKEHLQHMTEKQLNLYDRLINEPSNDWDIYYWATEAKPAPEIFENEVMALLRDFAKNKNKEQRLRAPDLEYLFEKPR | no binding | binds | –
2 | SDHAF2 (residues 37-166, His6 tag removed with TEV protease) (protein, UniProt Q9NX18 37-166) GDSPTDSQKDMIEIPLPPWQERTDESIETKRARLLYESRKRGMLENCILLSLFAKEHLQHMTEKQLNLYDRLINEPSNDWDIYYWATEAKPAPEIFENEVMALLRDFAKNKNKEQRLRAPDLEYLFEKPR | – | – | no binding (tested: 8 µM SDHAF2, 4 µM FLAG-SDHAF4)
